US20080213860
Positions count from the first letter of the chain named. Construct, isoform or probe ends are uncertain for at least one entry. For some of these results: The comparison behind a weaker result is the experiment's own reference, which may not be listed here. Protein sequences can lack the tags named with them.

Assays:
Assay in all cases: enzyme reaction in vitro
[1] = test system: T1, BsmI R159D (Bacillus stearothermophilus NUB36); conditions: low nicking activity; protein in an extract; only the site is given
T1 sequence: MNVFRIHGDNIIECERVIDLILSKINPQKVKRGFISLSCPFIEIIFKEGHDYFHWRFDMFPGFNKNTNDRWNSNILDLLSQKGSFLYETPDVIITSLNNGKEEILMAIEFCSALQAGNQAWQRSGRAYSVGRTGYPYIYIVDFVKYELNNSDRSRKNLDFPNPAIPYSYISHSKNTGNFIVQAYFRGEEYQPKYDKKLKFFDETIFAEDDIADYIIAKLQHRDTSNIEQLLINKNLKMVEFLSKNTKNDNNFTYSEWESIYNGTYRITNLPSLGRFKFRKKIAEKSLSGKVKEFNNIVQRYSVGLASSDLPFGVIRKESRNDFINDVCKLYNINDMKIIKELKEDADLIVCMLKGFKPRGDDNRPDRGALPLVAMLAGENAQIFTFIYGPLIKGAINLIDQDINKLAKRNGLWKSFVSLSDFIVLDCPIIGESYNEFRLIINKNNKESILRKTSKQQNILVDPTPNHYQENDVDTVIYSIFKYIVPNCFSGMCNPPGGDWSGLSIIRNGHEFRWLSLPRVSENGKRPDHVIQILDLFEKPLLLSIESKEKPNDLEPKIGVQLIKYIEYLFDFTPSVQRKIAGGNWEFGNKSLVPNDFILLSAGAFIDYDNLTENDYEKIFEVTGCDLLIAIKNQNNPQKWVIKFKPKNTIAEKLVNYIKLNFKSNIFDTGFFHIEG

[2] = test system: T2, BsmI R56D (Bacillus stearothermophilus NUB36); conditions: ds-DNA cleavage; protein in an extract; only the site is given
T2 sequence: T1 sequence with R56D, D159R

[3] = test system: T3, BsmI R123D (Bacillus stearothermophilus NUB36); conditions: low nicking activity; protein in an extract; only the site is given
T3 sequence: T1 sequence with R123D, D159R

[4] = test system: T4, BsmI R132D (Bacillus stearothermophilus NUB36); conditions: ds-DNA cleavage; protein in an extract; only the site is given
T4 sequence: T1 sequence with R132D, D159R

Sequence: GCATTC [pBR322 supercoiled plasmid (one BsmI site)]
- activity on this sequence [1]: less active
- activity on this sequence [2]: active
- activity on this sequence [3]: less active
- activity on this sequence [4]: active
